Literature values, collected in patent publication US20210353627A1, “NOVEL QUINAZOLINE EGFR INHIBITORS” (Spectrum Pharmaceuticals, Inc., priority 2018, published 2021).
Some of these results come from one statement about several compounds together. At least one compound was matched to its structure with a doubt left.

Tested on: HER2 mutant tumors
Details: patients with HER2 mutant tumors; many studies (Kosaka et al, 2017)

SMILES | OR rates
COc1cc2ncnc(Nc3ccc(F)c(Cl)c3)c2cc1NC(=O)/C=C/CN1CCCCC1 [dacomitinib] | below 40%
CN(C)C/C=C/C(=O)Nc1cc2c(Nc3ccc(F)c(Cl)c3)ncnc2cc1O[C@H]1CCOC1 [afatinib] | below 40%
CS(=O)(=O)CCNCc1ccc(-c2ccc3ncnc(Nc4ccc(OCc5cccc(F)c5)c(Cl)c4)c3c2)o1 [lapatinib] | below 40%
